Test results taken from doi:10.1101/2023.09.17.558147.
Where two headings read alike, the source gives them in different places. Results are given in words; binding and its absence hold for the method and conditions named. In cells and extracts the contact can be indirect. A yes stands for co-enrichment or nearness to the bait. Other partners may have been found. For some of these results: No binding means not detected with the bait.

Amino acid sequences for entries named in this document (tags omitted). A change or cut given only in a name is not applied to a line headed by its entry.
UniProt P51979: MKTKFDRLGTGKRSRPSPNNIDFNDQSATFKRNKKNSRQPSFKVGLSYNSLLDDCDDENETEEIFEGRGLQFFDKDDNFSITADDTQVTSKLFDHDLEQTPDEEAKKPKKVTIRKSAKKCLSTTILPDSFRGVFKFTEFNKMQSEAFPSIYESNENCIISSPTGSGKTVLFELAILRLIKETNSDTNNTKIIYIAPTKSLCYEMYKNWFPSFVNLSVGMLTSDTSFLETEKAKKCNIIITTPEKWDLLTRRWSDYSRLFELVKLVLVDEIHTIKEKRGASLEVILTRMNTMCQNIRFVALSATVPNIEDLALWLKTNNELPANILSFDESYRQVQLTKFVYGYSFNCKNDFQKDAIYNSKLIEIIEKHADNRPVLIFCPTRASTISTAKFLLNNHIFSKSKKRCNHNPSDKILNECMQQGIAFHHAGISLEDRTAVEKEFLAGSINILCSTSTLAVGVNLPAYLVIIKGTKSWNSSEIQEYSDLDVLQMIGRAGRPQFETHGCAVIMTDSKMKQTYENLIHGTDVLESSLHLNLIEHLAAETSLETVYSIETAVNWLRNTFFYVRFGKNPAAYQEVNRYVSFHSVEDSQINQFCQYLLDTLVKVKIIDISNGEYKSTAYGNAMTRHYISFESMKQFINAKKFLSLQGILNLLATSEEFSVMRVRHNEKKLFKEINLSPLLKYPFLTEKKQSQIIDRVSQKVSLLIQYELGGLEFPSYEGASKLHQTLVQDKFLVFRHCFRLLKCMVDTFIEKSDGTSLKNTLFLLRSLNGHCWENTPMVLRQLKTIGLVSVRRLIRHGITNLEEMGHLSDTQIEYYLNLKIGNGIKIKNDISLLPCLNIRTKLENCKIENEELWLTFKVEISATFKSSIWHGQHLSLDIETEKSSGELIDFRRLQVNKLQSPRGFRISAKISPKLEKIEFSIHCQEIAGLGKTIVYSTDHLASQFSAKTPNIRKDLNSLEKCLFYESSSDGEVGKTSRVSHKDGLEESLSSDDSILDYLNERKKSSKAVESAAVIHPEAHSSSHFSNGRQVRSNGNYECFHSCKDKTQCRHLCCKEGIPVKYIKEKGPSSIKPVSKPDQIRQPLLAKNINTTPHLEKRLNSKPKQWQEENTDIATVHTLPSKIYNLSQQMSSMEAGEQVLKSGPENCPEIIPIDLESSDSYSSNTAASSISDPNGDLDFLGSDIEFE
UniProt Q12306: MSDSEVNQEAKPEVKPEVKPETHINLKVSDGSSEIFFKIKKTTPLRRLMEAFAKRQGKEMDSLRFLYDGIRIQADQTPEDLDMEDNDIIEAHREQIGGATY

Experiments:
Assay in all cases: proximity labelling
[1] = molecular target: T1, Ecm11-TurboID (S. cerevisiae) (UniProt Q04110)
T1 sequence: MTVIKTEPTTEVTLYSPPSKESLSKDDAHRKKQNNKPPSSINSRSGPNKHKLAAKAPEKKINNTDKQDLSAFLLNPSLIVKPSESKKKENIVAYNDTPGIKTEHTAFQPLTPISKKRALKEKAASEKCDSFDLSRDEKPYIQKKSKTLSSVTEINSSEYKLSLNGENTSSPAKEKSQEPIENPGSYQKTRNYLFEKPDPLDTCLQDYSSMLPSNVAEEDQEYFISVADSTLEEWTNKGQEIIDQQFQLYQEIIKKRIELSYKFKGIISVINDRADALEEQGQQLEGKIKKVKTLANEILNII

[2] = molecular target: T2, Msh4-TurboID (S. cerevisiae) (UniProt P40965)
T2 sequence: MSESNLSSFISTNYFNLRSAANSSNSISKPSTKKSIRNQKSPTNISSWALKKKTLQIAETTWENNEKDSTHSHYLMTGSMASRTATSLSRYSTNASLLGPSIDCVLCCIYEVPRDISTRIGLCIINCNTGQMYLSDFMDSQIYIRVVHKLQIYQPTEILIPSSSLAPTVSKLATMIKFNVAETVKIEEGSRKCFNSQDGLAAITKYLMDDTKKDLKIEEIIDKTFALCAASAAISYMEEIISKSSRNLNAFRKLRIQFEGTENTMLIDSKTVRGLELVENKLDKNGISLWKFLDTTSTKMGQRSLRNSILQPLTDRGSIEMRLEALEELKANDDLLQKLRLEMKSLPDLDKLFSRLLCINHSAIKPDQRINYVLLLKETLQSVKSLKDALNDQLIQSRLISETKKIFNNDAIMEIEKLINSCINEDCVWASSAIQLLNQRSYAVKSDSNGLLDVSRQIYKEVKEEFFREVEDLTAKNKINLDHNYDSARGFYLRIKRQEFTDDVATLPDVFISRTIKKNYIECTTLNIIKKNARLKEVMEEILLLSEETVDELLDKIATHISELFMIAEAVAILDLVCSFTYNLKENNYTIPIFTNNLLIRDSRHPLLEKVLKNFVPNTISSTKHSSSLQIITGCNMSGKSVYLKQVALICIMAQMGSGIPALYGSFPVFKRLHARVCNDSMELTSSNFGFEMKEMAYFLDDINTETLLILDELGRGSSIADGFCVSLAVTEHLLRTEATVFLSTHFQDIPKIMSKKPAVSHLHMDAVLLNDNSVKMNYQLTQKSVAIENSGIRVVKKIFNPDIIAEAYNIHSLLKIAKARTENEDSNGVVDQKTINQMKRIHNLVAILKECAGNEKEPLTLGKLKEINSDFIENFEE

[3] = molecular target: T3, Msh5-TurboID (S. cerevisiae) (UniProt Q12175)
T3 sequence: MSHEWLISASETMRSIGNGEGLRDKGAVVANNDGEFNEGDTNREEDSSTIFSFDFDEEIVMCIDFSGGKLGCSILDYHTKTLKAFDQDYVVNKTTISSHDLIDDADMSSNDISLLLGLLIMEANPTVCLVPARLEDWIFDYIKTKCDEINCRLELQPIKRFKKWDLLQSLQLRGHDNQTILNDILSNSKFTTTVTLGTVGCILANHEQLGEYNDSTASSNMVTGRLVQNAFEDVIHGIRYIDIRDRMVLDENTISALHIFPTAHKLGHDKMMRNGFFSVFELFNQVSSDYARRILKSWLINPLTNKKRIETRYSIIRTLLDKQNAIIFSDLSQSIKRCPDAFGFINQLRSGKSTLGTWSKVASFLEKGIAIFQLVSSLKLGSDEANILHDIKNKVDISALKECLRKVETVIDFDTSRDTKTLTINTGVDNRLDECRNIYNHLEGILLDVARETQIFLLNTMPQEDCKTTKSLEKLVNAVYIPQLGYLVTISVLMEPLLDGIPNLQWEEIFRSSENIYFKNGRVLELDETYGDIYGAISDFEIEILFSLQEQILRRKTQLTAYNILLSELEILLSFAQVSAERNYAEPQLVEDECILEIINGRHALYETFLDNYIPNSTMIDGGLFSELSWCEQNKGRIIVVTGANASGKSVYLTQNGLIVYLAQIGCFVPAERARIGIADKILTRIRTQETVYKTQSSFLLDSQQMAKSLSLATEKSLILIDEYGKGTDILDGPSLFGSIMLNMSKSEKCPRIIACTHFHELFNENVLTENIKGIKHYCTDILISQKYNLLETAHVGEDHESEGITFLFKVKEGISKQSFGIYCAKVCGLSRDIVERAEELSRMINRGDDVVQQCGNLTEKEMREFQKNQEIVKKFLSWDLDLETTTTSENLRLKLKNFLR

[4] = molecular target: T1, Ecm11-TurboID (S. cerevisiae); remark: listed apart in the source
[5] = molecular target: T4, Mlh3-TurboID (S. cerevisiae) (UniProt Q12083)
T4 sequence: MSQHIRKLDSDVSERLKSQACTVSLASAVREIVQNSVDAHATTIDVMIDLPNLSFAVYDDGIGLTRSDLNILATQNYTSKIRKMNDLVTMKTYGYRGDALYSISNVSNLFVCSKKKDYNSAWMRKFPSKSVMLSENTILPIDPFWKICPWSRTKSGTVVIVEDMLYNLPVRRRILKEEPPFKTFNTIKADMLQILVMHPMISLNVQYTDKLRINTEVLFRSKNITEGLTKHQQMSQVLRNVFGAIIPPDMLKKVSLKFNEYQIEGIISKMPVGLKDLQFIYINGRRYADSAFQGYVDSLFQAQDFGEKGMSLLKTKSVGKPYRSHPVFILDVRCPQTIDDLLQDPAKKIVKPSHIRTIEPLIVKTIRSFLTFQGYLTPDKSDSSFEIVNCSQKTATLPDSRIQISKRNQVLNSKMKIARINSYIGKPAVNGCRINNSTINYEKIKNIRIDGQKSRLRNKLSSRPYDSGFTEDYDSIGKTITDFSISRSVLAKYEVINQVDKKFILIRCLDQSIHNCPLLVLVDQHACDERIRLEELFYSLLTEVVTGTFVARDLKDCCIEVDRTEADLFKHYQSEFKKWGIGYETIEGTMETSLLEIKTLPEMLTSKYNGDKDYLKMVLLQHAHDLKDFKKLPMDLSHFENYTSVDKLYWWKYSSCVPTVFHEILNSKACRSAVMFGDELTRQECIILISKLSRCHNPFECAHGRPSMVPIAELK

[6] = molecular target: T5, TurboID-Gmc2 (S. cerevisiae) (UniProt Q06201)
T5 sequence: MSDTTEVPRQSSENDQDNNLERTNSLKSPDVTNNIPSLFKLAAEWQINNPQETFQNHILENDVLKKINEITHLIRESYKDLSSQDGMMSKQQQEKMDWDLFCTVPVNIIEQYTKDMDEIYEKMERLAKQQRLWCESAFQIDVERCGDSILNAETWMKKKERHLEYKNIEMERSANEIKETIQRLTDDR

[7] = molecular target: T3, Msh5-TurboID (S. cerevisiae); remark: listed apart in the source
[8] = molecular target: Mer3-TurboID (S. cerevisiae) (UniProt P51979)
[9] = molecular target: T6, Zip3iTurboID (S. cerevisiae) (UniProt Q06032)
T6 sequence: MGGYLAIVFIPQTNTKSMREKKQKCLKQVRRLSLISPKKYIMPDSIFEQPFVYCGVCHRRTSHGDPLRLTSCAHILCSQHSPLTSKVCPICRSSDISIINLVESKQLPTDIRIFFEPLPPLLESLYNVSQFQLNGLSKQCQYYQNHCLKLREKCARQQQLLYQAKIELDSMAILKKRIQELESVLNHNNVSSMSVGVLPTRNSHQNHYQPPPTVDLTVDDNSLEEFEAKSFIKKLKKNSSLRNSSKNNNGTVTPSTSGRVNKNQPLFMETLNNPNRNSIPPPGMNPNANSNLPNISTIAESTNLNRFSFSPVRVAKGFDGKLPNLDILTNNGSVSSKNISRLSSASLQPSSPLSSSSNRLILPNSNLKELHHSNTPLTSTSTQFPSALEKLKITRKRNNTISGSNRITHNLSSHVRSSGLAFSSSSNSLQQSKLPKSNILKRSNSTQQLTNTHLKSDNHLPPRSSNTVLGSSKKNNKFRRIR

[10] = molecular target: T7, Ecm11-TurboID (S. cerevisiae), Q04110; conditions: remark: other sources report otherwise
T7 chain: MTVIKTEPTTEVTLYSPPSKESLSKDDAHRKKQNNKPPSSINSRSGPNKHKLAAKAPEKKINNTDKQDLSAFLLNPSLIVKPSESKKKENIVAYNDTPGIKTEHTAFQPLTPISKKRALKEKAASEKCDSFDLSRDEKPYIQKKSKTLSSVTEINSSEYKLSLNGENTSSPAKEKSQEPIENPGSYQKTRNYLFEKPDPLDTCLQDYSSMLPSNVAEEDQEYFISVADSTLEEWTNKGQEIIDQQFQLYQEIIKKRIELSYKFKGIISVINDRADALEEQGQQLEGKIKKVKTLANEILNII

## SUMO protein (encoded by the SMT3 gene) (from UniProt Q12306)
[1]
  binding: binds

## Mer3 helicase (from UniProt P51979 1-1187)
[2]
  binding: binds
[3]
  binding: binds

B1: Ecm11 (protein, UniProt Q04110 1-302)
chain: MTVIKTEPTTEVTLYSPPSKESLSKDDAHRKKQNNKPPSSINSRSGPNKHKLAAKAPEKKINNTDKQDLSAFLLNPSLIVKPSESKKKENIVAYNDTPGIKTEHTAFQPLTPISKKRALKEKAASEKCDSFDLSRDEKPYIQKKSKTLSSVTEINSSEYKLSLNGENTSSPAKEKSQEPIENPGSYQKTRNYLFEKPDPLDTCLQDYSSMLPSNVAEEDQEYFISVADSTLEEWTNKGQEIIDQQFQLYQEIIKKRIELSYKFKGIISVINDRADALEEQGQQLEGKIKKVKTLANEILNII
modifications: biotinylated by TurboID (sites not given)
[4]
  binding: binds
[5]
  binding: no binding
[6]
  binding: binds
[7]
  binding: binds
[8]
  binding: binds

B2: Zip3 (protein, UniProt Q06032 1-482)
chain: MGGYLAIVFIPQTNTKSMREKKQKCLKQVRRLSLISPKKYIMPDSIFEQPFVYCGVCHRRTSHGDPLRLTSCAHILCSQHSPLTSKVCPICRSSDISIINLVESKQLPTDIRIFFEPLPPLLESLYNVSQFQLNGLSKQCQYYQNHCLKLREKCARQQQLLYQAKIELDSMAILKKRIQELESVLNHNNVSSMSVGVLPTRNSHQNHYQPPPTVDLTVDDNSLEEFEAKSFIKKLKKNSSLRNSSKNNNGTVTPSTSGRVNKNQPLFMETLNNPNRNSIPPPGMNPNANSNLPNISTIAESTNLNRFSFSPVRVAKGFDGKLPNLDILTNNGSVSSKNISRLSSASLQPSSPLSSSSNRLILPNSNLKELHHSNTPLTSTSTQFPSALEKLKITRKRNNTISGSNRITHNLSSHVRSSGLAFSSSSNSLQQSKLPKSNILKRSNSTQQLTNTHLKSDNHLPPRSSNTVLGSSKKNNKFRRIR
[5]
  binding: no binding
[6]
  binding: no binding
[8]
  binding: binds
[9]
  binding: binds

B3: Zip1, P31111 1-875 (protein)
chain: MSNFFRDSSMGFKPRPNIFAKLRVRDVDSDSSANTVVENSSNCLDVGSSIEGDDTFKKPHKTSTEQELITSMSLSQRNHGYSDDMEIGSPKKTTSTDQYNRILKNDVAAIENDTDEDFEITEVREVSEGVAKETKESHGDPNDSETTLKDSKMHEYTMTNGKAPLHTSINNSSTSSNDVLLEAFTNTQRICSNLKQELQKQQQDNAKLKVRLQSYASNSDKINEKVGKYKSCLETLQERIATLTSHKNNQETKLKDLRQNHQLYQRRISGFKTSIENLNKTINDLGKNKKEADAELMKKGKEIEYLKRELDDCSGQLSEEKIKNSSLIQEMGKNREEMIKSIENFFSEDKAHHLLQFNKFEERVHDLFEKKLQKHFDVAKDTLNVGLRNTTVELSSNTETMLKQQYEDIKENLEQKMSSSKDEMAKTINELSVTQKGLIMGVQEELLTSSGNIQTALVSEMNNTRQELLDDASQTAKNYASLENLVKAYKAEIVQSNEYEERIKHLESERSTLSSQKNQIISSLGTKEAQYEDLVKKLEAKNIEISQISGKEQSLTEKNENLSNELKKVQDQLEKLNNLNITTKSNYENKISSQNEIVKALVSENDTLKQRIQQLVEIKENEQKDHTTKLEAFQKNNEQLQKLNVEVVQLKAHELELEEQNRHLKNCLEKKETGVEESLSDVKTLKQQVIVLKSEKQDITAEKLELQDNLESLEEVTKNLQQKVQSQKRELEQKIKELEEIKNHKRNEPSKKGTQNFTKPSDSPKKNATTSNLFPNNSAAIHSPMKKCPKVDHISKSRINSSKETSKFNDEFDLSSSSNDDLELTNPSPIQIKPVRGKIKKGSNCMKPPISSRKKLLLVEDEDQSLKISKKRRRK
[10]
  binding: binds
